From publication PMC7819943, “Rice protein-binding microarrays: a tool to detect cis-acting elements near promoter regions in rice”
The list shows a part of the results.

Protein sequences, listed by entry. Tags and fused reporters are not part of them.
UniProt Q0JBA9, entry or part of it: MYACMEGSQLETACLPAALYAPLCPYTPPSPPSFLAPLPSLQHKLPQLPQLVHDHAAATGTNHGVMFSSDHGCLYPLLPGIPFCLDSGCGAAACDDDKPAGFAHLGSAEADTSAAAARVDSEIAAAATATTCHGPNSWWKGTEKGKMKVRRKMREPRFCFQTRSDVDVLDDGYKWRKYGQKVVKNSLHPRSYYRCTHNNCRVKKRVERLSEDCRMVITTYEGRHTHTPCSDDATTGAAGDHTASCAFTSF

target: OsWRKY34 (Oryza sativa, UniProt Q0JBA9 1-250); experiment: protein-binding microarray (RPBM); PBS, 2% BSA, 51.3 ng/ul salmon testes DNA, 50 uM zinc acetate, 200 nM TF, 25 C, 1 h; high values mean tight binding; conditions: protein: recombinant; tags: N-terminal polyhistidine and DsRed monomer fusion (pET32a); label: CyDye5-dUTP incorporated in the synthesized complementary strand; 3' TTTTT single-stranded linker to array surface; dsDNA, one strand shown
Outline: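 Using Ni–NTA, transcription factors fused N-terminally to polyhistidine and DsRed were purified after expression in E. coli BL21-CodonPlus. These were incubated at 200 nM with a blocked, double-stranded custom Agilent array for 1 h at 25 °C in a buffer containing 50 µM zinc acetate, and the array was washed. The binding signal is per-feature fluorescence intensity (arbitrary units) on an Axon 4000B scanner.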

Point of comparison: “TCATCTCATCTCCTCCAAGAAACCCACCCATCTCTCTCCCCGGAGTCACCTAGTGCAG”, binding signal 8560 fluorescence intensity (a.u.). Against it:
- GTCATTTCACCTCCCCGGCCCACGCCCGCCGCGCGGCCCACGGAGTCACCTAGTGCAG — higher, 8820 fluorescence intensity (a.u.)
- TTCTTGCATTTGTCACTTCCCTTGATGCTTTTGATAATCACGGAGTCACCTAGTGCAG — higher, 8960 fluorescence intensity (a.u.)
- GATGTTCCTGGCCGTGATCGAGCTCCTGCGTTCTTGCTTACGGAGTCACCTAGTGCAG — higher, 10400 fluorescence intensity (a.u.)
- TTCTTGATGTCTCAGCTACTAGCTACCATGAGTTCAGATACGGAGTCACCTAGTGCAG — lower, 8280 fluorescence intensity (a.u.)
- CATTCCTCTGCCTTGCAATTGGTGCGCCGTCTTCTCTCTTCGGAGTCACCTAGTGCAG — higher, 14700 fluorescence intensity (a.u.)
- TGTTCTTATTAATACCTACAACTCTTGGTCACTCACTCTCCGGAGTCACCTAGTGCAG — lower, 8300 fluorescence intensity (a.u.)
- CTCTGTTTCTATTGTCGTTGTTCCCTTCTTCTACTGGTAACGGAGTCACCTAGTGCAG — higher, 9450 fluorescence intensity (a.u.)
- GTAGGTAATTTGTAGGAGTAGAGTTTTTTTTTATCAATAACGGAGTCACCTAGTGCAG — the same, 8560 fluorescence intensity (a.u.)
- GAGATAAACCCGCACCGTCCGTCTCCGTCTCCGTCCTCTCCGGAGTCACCTAGTGCAG — higher, 9020 fluorescence intensity (a.u.)
- CATTGGCTTTTTAATCAACATTTGATCATTCGTCTTATTCCGGAGTCACCTAGTGCAG — lower, 8490 fluorescence intensity (a.u.)
- CCCACCACCCACCACCCACCGCCACCTTTTGTTCCGCAACCGGAGTCACCTAGTGCAG — higher, 8860 fluorescence intensity (a.u.)
- TCCCCGACTCCGACCTCTCCGTGCGCACCCTCCCCGACCTCGGAGTCACCTAGTGCAG — higher, 8860 fluorescence intensity (a.u.)
- AATTTCCTTGCTGACAGAAACCCTCGCAACGTGCTTTTCGCGGAGTCACCTAGTGCAG — lower, 8240 fluorescence intensity (a.u.)
- GATTTCTTTGTTGATTTTATTGGTTTTCTCCTAATCTTGCCGGAGTCACCTAGTGCAG — higher, 8820 fluorescence intensity (a.u.)
- GAAATCATTGACTGTCTTCTTTACCTGTTCTTTGGCAGAACGGAGTCACCTAGTGCAG — higher, 12100 fluorescence intensity (a.u.)
- TTGAACTTCCTTGCAACATTGAATTTGTCCTATAATATGTCGGAGTCACCTAGTGCAG — higher, 9720 fluorescence intensity (a.u.)
- CTCCGTCACTCAGATTTAATACATGACTCTCTATTATTCCCGGAGTCACCTAGTGCAG — higher, 9060 fluorescence intensity (a.u.)
- TTACAGTAGTCCTGGAACCTCGCTTTGACCACTGTATTACCGGAGTCACCTAGTGCAG — lower, 8470 fluorescence intensity (a.u.)
- GGGAGTATATATTTCCACGCTGCCCTTTAGTATACACCTCCGGAGTCACCTAGTGCAG — lower, 8420 fluorescence intensity (a.u.)
- ACTATATCTCCTCGATCGGTTGCAGAGTTCAAATTGAAGTCGGAGTCACCTAGTGCAG — lower, 8270 fluorescence intensity (a.u.)
- TCACCTTGCCTCGCCCTCGCCCTCGCCACCATCCAACGACCGGAGTCACCTAGTGCAG — higher, 9130 fluorescence intensity (a.u.)
- GCTCTTTCTTCACATTTGCTTCTTCTGAAGTTAGTACTACCGGAGTCACCTAGTGCAG — higher, 12400 fluorescence intensity (a.u.)
- TCAGCATAACGCACGGTGTACATCCCTTTCATCTATTTACCGGAGTCACCTAGTGCAG — higher, 11400 fluorescence intensity (a.u.)
- CACCTCTGCACCCAATTGCTGCCGCACCCAACTGCCGCGGCGGAGTCACCTAGTGCAG — higher, 11300 fluorescence intensity (a.u.)
- TGGATCTGGTGTGTTAGTTTGGATTTGTGTTTGTCCTTTTCGGAGTCACCTAGTGCAG — higher, 12600 fluorescence intensity (a.u.)
- TCTATTTCTACTCTCTTTTTATGTTTTCATGTTCGTCTGACGGAGTCACCTAGTGCAG — higher, 12100 fluorescence intensity (a.u.)
- GGTCGCCTCCTCCACTGCTGGCCACGCCTCTCGCGCCAAGCGGAGTCACCTAGTGCAG — higher, 11200 fluorescence intensity (a.u.)
- ATTACTTTTGTGCTGCTGTAGTGTTATTTCATAGTGGAGACGGAGTCACCTAGTGCAG — higher, 9740 fluorescence intensity (a.u.)
- ACTTAGTTTTGACCTCATTGAAATTCAATTTAGTTCTCAGCGGAGTCACCTAGTGCAG — lower, 8100 fluorescence intensity (a.u.)
- GCCCATGTTTCTCGGCCTTTCTTGAACACACTCTCACTATCGGAGTCACCTAGTGCAG — higher, 9890 fluorescence intensity (a.u.)
- TACATGTCACATATTACGTCCATTTGAGTTCAATTTTTCTCGGAGTCACCTAGTGCAG — higher, 9590 fluorescence intensity (a.u.)
- CCCCGAACACGCAGCCTCGCCACGCCACGCGCCCACGCTGCGGAGTCACCTAGTGCAG — higher, 10700 fluorescence intensity (a.u.)
- ACATCGAGAGACCGAAATTTGGCCCACACCCAGGCTCAGCCGGAGTCACCTAGTGCAG — higher, 8710 fluorescence intensity (a.u.)
- TGGTATGTGTGTTGGTGGTGTGTTCAGATTTGTTGATTTACGGAGTCACCTAGTGCAG — higher, 9110 fluorescence intensity (a.u.)
- AAATTTACCTCCCTAAGTGGTTTTGTCCTATGTTACGTCTCGGAGTCACCTAGTGCAG — higher, 9280 fluorescence intensity (a.u.)
- TCCGTCTAACCAAATACACATAGTAATCCTTTAGTTGTATCGGAGTCACCTAGTGCAG — lower, 8410 fluorescence intensity (a.u.)
- AATCCTGAAGATGCTACTGCTACACCTTTTCTTTTGGCCTCGGAGTCACCTAGTGCAG — higher, 10600 fluorescence intensity (a.u.)
- TTAATCAACTCGATTTCTGTCCAAGTTCGTCTCTATTGACCGGAGTCACCTAGTGCAG — lower, 8520 fluorescence intensity (a.u.)
- TGCACTTACTTGTCTGATTTTGCACTCAGTTGGGGATATCCGGAGTCACCTAGTGCAG — higher, 8760 fluorescence intensity (a.u.)
- TTCGCGCGCTGCTCGCTCGCTTGGTTGGTTGGTTGATTGCCGGAGTCACCTAGTGCAG — higher, 15200 fluorescence intensity (a.u.)
- TCCCGCATGCGCCCGGTCCACCGCGCCTCGCCTCGCTGACCGGAGTCACCTAGTGCAG — lower, 8550 fluorescence intensity (a.u.)
- GTTCTTTTTTAGTTTTGGAAGGGGACCTTTCTTGGGGTATCGGAGTCACCTAGTGCAG — higher, 13500 fluorescence intensity (a.u.)
- TGCCAGGCCAACTCTAGCTTCAAATCCAGGGGAGGAATCACGGAGTCACCTAGTGCAG — higher, 8700 fluorescence intensity (a.u.)
- CGCATCATCCGCCCGTACACGTGTCCTGCATCGACGGCGCCGGAGTCACCTAGTGCAG — higher, 11200 fluorescence intensity (a.u.)
- ACAGTGGTTATTAATGCTATTTATATCTTTTCTTATTAAGCGGAGTCACCTAGTGCAG — higher, 9390 fluorescence intensity (a.u.)
- AACTGCGGCATTGGCGATGTGGTTTCGCTGCTTGGTCATCCGGAGTCACCTAGTGCAG — lower, 8460 fluorescence intensity (a.u.)
- TTTTTTTCCTTTTTTCCTGTTGGTGTTGCGCGGTGGGCGACGGAGTCACCTAGTGCAG — higher, 8980 fluorescence intensity (a.u.)
- ACCTCCACCCCGAGAAGGTGACATTTCTCCCTAATTATCCCGGAGTCACCTAGTGCAG — higher, 8770 fluorescence intensity (a.u.)
- GACTTTACTCTATCTTCATTTCCGCACAACGTTGACTGGGCGGAGTCACCTAGTGCAG — higher, 10500 fluorescence intensity (a.u.)
- ACCACCACGCGCGCACGAAACCCGCGCACTTTCCCCTCCTCGGAGTCACCTAGTGCAG — higher, 8630 fluorescence intensity (a.u.)
- TTTATTTATCTTTTTCTCCATTTTTTCTGTTCTTCCTTTCCGGAGTCACCTAGTGCAG — higher, 9750 fluorescence intensity (a.u.)
- TCAATGGTTGGTGGGGTTTTTTAGTGGGCTGTCGCCGAGCCGGAGTCACCTAGTGCAG — higher, 11700 fluorescence intensity (a.u.)
- TATGTTCTTGATTTGTCCTGTTACATTGCTGACATATGTGCGGAGTCACCTAGTGCAG — higher, 10500 fluorescence intensity (a.u.)
